This test relates to MCF7. Kind of test: cells. The following applies: Homo sapiens, MCF7, 48 h.

This passage reports IC50 results from ChEMBL document CHEMBL4813991, “Design, synthesis and bioactivity study on 5-phenylfuran derivatives as potent reversal agents against P-glycoprotein-mediated multidrug resistance in MCF-7/ADR cell” (Eur J Med Chem, 2021).

For `COc1cccc2c1C(=O)c1c(O)c3c(c(O)c1C2=O)C[C@@](O)(C(=O)CO)C[C@@H]3O[C@H]1C[C@H](N)[C@H](O)[C@H](C)O1` [DOXORUBICIN], the IC50 is 430 nM.

The IC50 is the point on the concentration scale where inhibition reaches its midpoint.
